Experimental data reported in the supplement of paper PMC11348887.
Values joined by “and” are separate entries in the source; they are usually repeats but may differ in a detail not shown here. Equal entries are not always repeated. Structures can show the parent of a compound that is named as a salt. Some of the results follow. Most entries show no effect beyond the scatter of the controls. *1 amine or outer side, *2 acyl side, *3 side chain or, on linkers, in order; H or OH if unused. Where a SMILES comes first, the peptide text is derived from it. Bridges are numbered along the chain shown (N, C = ends). [ ]: non-standard residue; d: D form. The star is where a group is joined. pTerphenylCO(4''-OnC5H11) = CCCCCOc1ccc(-c2ccc(-c3ccc(C(=O)*)cc3)cc2)cc1; Orn(4R-OH,5R-OH) = O=C([C@H](C[C@@H](O)[C@@H](O)N[*:3])N[*:1])[*:2]; hTyr(3S-OH,4S-OH) = N[C@H](C(=O)O)[C@H](O)[C@@H](O)c1ccc(O)cc1; Pro(3S-OH,4S-Me) = C[C@H]1CN[C@H](C(=O)O)[C@H]1O; Hyp = O=C(O)[C@@H]1C[C@@H](O)CN1; Cbz = O=C(OCc1ccccc1)*; CH2F = FC*

System: hPSC-derived cortical neurons (WA09)
Test: nucleus roundness z-score vs screen plate; higher = rounder nuclei (more mature)
Details: 5 µM; treatment: days 7-14 after plating, readout day 21

SMILES | nucleus roundness z-score
N[C@H]1CC[C@H](N[C@@H]2C[C@H]2c2ccccc2)CC1 | -0.659
C=C1/C(=C\C=C2/CCC[C@]3(C)[C@@H]([C@H](C)CCCC(C)C)CC[C@@H]23)C[C@@H](O)C[C@@H]1O [Alfacalcidol] | -0.898
O=C(O)CCNc1cc(N2CCc3ccccc3CC2)nc(-c2ccccn2)n1 | 0.172
O=C(NOC[C@H](O)CO)c1ccc(F)c(F)c1Nc1ccc(I)cc1F | 0.543
CCC(C)SSc1ncc[nH]1 (stereo unspecified) | 0.74
COC(=O)N[C@H](C(=O)N1CC2(CC2)C[C@H]1c1nc(-c2ccc3c(c2)C(F)(F)c2cc(-c4ccc5[nH]c([C@@H]6[C@H]7CC[C@H](C7)N6C(=O)[C@@H](NC(=O)OC)C(C)C)nc5c4)ccc2-3)c[nH]1)C(C)C [Ledipasvir (GS5885)] | -0.927
CN1CCN(C(=O)c2cc3cc(Cl)ccc3[nH]2)CC1 | 0.979
CC(C)(O)CNc1nc(Nc2ccnc(C(F)(F)F)c2)nc(-c2cccc(C(F)(F)F)n2)n1 [Enasidenib (AG-221)] | -0.665
CC(C)Cn1cnc2c(N)nc3ccccc3c21 [Imiquimod] | -1.48
CCC/N=C1\S/C(=C\c2ccc(OC[C@H](O)CO)c(Cl)c2)C(=O)N1c1ccccc1C [Ponesimod] | -2.07
CCOC(=O)c1[nH]c2cc(Cl)ccc2c1C(C(=O)NC(C)(C)C)N(C=O)Cc1ccc(Cl)cc1 (stereo unspecified) | -0.459
Cc1cc(Nc2ccc(NC(=O)c3ccc(Nc4ccnc5ccccc45)cc3)cc2)nc(N)n1 | -1.61
COc1cc(O)c(CC=C(C)C)c(O)c1C(=O)/C=C/c1ccc(O)cc1 [Xanthohumol] | -1.07
CC[C@@H]1/C=C(\C)C[C@H](C)C[C@H](OC)[C@H]2O[C@@](O)(C(=O)C(=O)N3CCCC[C@H]3C(=O)O[C@H](/C(C)=C/[C@@H]3CC[C@H](Cl)[C@H](OC)C3)[C@H](C)[C@@H](O)CC1=O)[C@H](C)C[C@@H]2OC [Pimecrolimus] | -0.651
Cc1ncc([N+](=O)[O-])n1CCO [Metronidazole] | -0.542
CN(C)CCCN1c2ccccc2CCc2ccccc21 [Imipramine HCl] | 1.11
C#Cc1cccc(Nc2ncnc3cc(OCCOC)c(OCCO)cc23)c1 | -0.465
Nc1nc(=S)c2ncn([C@H]3C[C@H](O)[C@@H](CO)O3)c2[nH]1 | -0.351

Grouped by structure: those above with fluorine.
SMILES | nucleus roundness z-score
O=C(NOC[C@H](O)CO)c1ccc(F)c(F)c1Nc1ccc(I)cc1F | 0.543
COC(=O)N[C@H](C(=O)N1CC2(CC2)C[C@H]1c1nc(-c2ccc3c(c2)C(F)(F)c2cc(-c4ccc5[nH]c([C@@H]6[C@H]7CC[C@H](C7)N6C(=O)[C@@H](NC(=O)OC)C(C)C)nc5c4)ccc2-3)c[nH]1)C(C)C [Ledipasvir (GS5885)] | -0.927
CC(C)(O)CNc1nc(Nc2ccnc(C(F)(F)F)c2)nc(-c2cccc(C(F)(F)F)n2)n1 [Enasidenib (AG-221)] | -0.665

Later entries

SMILES | nucleus roundness z-score
O=C(NC[C@H](O)CO)c1ccncc1Nc1ccc(I)cc1F | 0.46
CCc1c2c(nc3ccc(OC(=O)N4CCC(N5CCCCC5)CC4)cc13)-c1cc3c(c(=O)n1C2)COC(=O)[C@]3(O)CC [Irinotecan] | 1.64
Cc1onc(-c2ccccc2)c1C(=O)N[C@@H]1C(=O)N2[C@@H]1SC(C)(C)[C@@H]2C(=O)O [Oxacillin sodium monohydrate] | -0.676
Cc1nnc(NS(=O)(=O)c2ccc(N)cc2)s1 [Sulfamethizole] | -0.897
C=CC(=O)Nc1cccc(C)c1Nc1ncc2cc(-c3c(Cl)c(OC)cc(OC)c3Cl)ccc2n1 | 1
CC(C)c1nc(CN(C)C(=O)N[C@H](C(=O)N[C@@H](Cc2ccccc2)C[C@H](O)[C@H](Cc2ccccc2)NC(=O)OCc2cncs2)C(C)C)cs1 [Ritonavir] | 0.198
CCCCCOc1ccc(-c2ccc(-c3ccc(C(=O)N[C@H]4C[C@@H](O)[C@@H](O)NC(=O)[C@@H]5[C@@H](O)[C@@H](C)CN5C(=O)[C@H]([C@@H](C)O)NC(=O)[C@H]([C@H](O)[C@@H](O)c5ccc(O)cc5)NC(=O)[C@@H]5C[C@@H](O)CN5C(=O)[C@H]([C@@H](C)O)NC4=O)cc3)cc2)cc1 ({pTerphenylCO(4''-OnC5H11)}-[Orn(4R-OH,5R-OH)]T[Hyp][hTyr(3S-OH,4S-OH)]T[Pro(3S-OH,4S-Me)]; lactam 1-C) | -1.53
CC1(C)O[C@H]2CC(=O)OC[C@]23[C@H]2CC[C@@]4(C)[C@H](c5ccoc5)OC(=O)[C@H]5O[C@]54[C@]2(C)C(=O)C[C@@H]13 [Limonin] | -0.821
CO/N=C(\C(=O)N[C@@H]1C(=O)N2C(C(=O)O)=C(CSc3nc(=O)c(O)nn3C)CS[C@H]12)c1csc(N)n1 [Ceftriaxone Sodium Trihydrate] | 0.185
Cn1nnc(-c2ccc3c(c2)[nH]c2nc(Cc4ccccc4)nc(NC4CCC(N)CC4)c23)n1 (stereo unspecified) | -0.735
Cc1cc(Nc2cc(N3CCN(C)CC3)nc(Sc3ccc(NC(=O)C4CC4)cc3)n2)n[nH]1 [VX-680 (Tozasertib_ MK-0457)] | 0.183
CCCCC(F)(F)[C@@]1(O)CC[C@H]2[C@@H](CC(=O)[C@@H]2CCCCCCC(=O)O)O1 [Lubiprostone] | -0.463
Cn1cc(-c2ccc3ncc(Cc4ccc5ncccc5c4)n3n2)cn1 | -0.877
CN(C)CC(=O)Nc1ccc2[nH]c(=O)c3ccccc3c2c1 | -0.279 and -0.176
Cc1cn([C@H]2O[C@@H](CO)[C@H](O)[C@H]2F)c(=O)[nH]c1=O [Clevudine] | 1.03
COC(=O)C[C@H](NC(=O)[C@H](C)NC(=O)[C@@H](NC(=O)OCc1ccccc1)C(C)C)C(=O)CF (Cbz-Val-Ala-Asp(OMe)-CH2F) | 0.702
CN(C)CCC[C@@]1(c2ccc(F)cc2)OCc2cc(C#N)ccc21 [Escitalopram Oxalate] | -0.0333
CC(C)[C@H](O)C(=O)N[C@@H](C)C(=O)N[C@@H]1C(=O)N(C)CCc2ccccc21 | 0.824
